# Literature values, collected in patent publication US6562363B1, “Bioadhesive compositions and methods for topical administration of active agents” (Noven Pharmaceuticals, Inc., priority 1997, dated 2003).
# For at least one compound, name, drawing or mass did not settle the structure.
# Settings: application to skin or mucous membranes
structure (smiles),measurement,setting,value
COC(=O)[C@H]1[C@@H](OC(=O)c2ccccc2)C[C@@H]2CC[C@H]1N2C [Cocaine],Duration of Effect,duration of anesthetic effect,30 to 120 min
same,Peak Effect,time to peak anesthetic effect,2 to 5 min
